According to paper PMC7819943, “Rice protein-binding microarrays: a tool to detect cis-acting elements near promoter regions in rice”:
This is one part of the list.

Chains of the proteins cited; added tags and fusions are not shown.
UniProt Q0JBA9, entry or part of it: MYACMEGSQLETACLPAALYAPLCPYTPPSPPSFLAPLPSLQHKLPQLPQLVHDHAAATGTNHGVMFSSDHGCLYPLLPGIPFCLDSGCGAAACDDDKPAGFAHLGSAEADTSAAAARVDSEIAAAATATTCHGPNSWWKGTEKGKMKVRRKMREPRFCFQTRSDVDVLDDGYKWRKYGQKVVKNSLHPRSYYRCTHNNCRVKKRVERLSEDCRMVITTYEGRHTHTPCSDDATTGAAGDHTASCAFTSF

These sequences were tested against OsWRKY34 (Oryza sativa, UniProt Q0JBA9 1-250) (assay: protein-binding microarray (RPBM); PBS, 2% BSA, 51.3 ng/ul salmon testes DNA, 50 uM zinc acetate, 200 nM TF, 25 C, 1 h; high values mean tight binding). Conditions: protein: recombinant; tags: N-terminal polyhistidine and DsRed monomer fusion (pET32a); label: CyDye5-dUTP incorporated in the synthesized complementary strand; 3' TTTTT single-stranded linker to array surface; dsDNA, one strand shown.
Method in brief: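 Binding signal is reported as fluorescence intensity per feature (arbitrary units) from an Axon 4000B scanner. Incubation used 200 nM of each Ni–NTA-purified, N-terminally polyhistidine- and DsRed-fused transcription factor from E. coli BL21-CodonPlus on a double-stranded custom Agilent array for 1 h at 25 °C, with 50 µM zinc acetate in the buffer, followed by washing.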

Sequence	binding signal
GATTGGCAGGAGCCATGTTACGTCGGTCCATCCCGTCCCGCGGAGTCACCTAGTGCAG	9380 fluorescence intensity (a.u.)
CTTTTTAGCATATGTTTGACCGTTTGTCTTATTCAAAAATCGGAGTCACCTAGTGCAG	8810 fluorescence intensity (a.u.)
GAGGCCACCACACACTCTCTCTCTCTCTCACTCACTCACTCGGAGTCACCTAGTGCAG	12300 fluorescence intensity (a.u.)
GAAGTCCATGTCATTTGCAAATTGCAATTGGTCCACGAACCGGAGTCACCTAGTGCAG	8020 fluorescence intensity (a.u.)
GCCGCTCCATCGCCCCAACCGCACGCCCGCCGTATGACGACGGAGTCACCTAGTGCAG	8750 fluorescence intensity (a.u.)
CTGTGGTGGATAATTGGGTTCTACTGGGTGGTGTCTGGCGCGGAGTCACCTAGTGCAG	8370 fluorescence intensity (a.u.)
CGATGTTGTGTTCGACGAAGGGCGAGGGTGGGTATGGGACCGGAGTCACCTAGTGCAG	10500 fluorescence intensity (a.u.)
GCATACAATCCTCCCAGAGTTCCAGAACCCACAAATGCTTCGGAGTCACCTAGTGCAG	9710 fluorescence intensity (a.u.)
CCTGAGCCGATCCCATCCATCCCGCGAGCGAGCGAGCGCTCGGAGTCACCTAGTGCAG	8400 fluorescence intensity (a.u.)
CATATTTGTCTTAGGTAAAAAATGTTCATGTTTTTTCTATCGGAGTCACCTAGTGCAG	8080 fluorescence intensity (a.u.)
TATTTATGAGTTGCCGACTTGCCTTTTTCTTGTTAATATGCGGAGTCACCTAGTGCAG	8390 fluorescence intensity (a.u.)
TCCTTTTCCACCGTGCCCGCGCGAAAAATGATCGCTCCTCCGGAGTCACCTAGTGCAG	8360 fluorescence intensity (a.u.)
TTTCTCCTCGATTTGTTCAGTGTTGGTCTGTTGGACACTACGGAGTCACCTAGTGCAG	9270 fluorescence intensity (a.u.)
CGCTCACGTGCACGCCGCACGCCGCCCCGTAACCGCGTTCCGGAGTCACCTAGTGCAG	10500 fluorescence intensity (a.u.)
ATTCTTCCTTCCGCCTCCCCGAGTCGGCCCGCTTCATCTCCGGAGTCACCTAGTGCAG	8110 fluorescence intensity (a.u.)
AGCACTGGTAGATGATAATTCGGTTATACTCCGTCCGAACCGGAGTCACCTAGTGCAG	9080 fluorescence intensity (a.u.)
ATCAAACGACCGCGCACTTTCATACACTACAGCTAGCACGCGGAGTCACCTAGTGCAG	9140 fluorescence intensity (a.u.)
TCTTTTTCTATCATTTGATTTATTGTTAAATATACTTTTACGGAGTCACCTAGTGCAG	9380 fluorescence intensity (a.u.)
CCAACCACTCCATCATCATTCGCAATCCAATCTCGCTCTTCGGAGTCACCTAGTGCAG	9230 fluorescence intensity (a.u.)
TACTACGATAATGTCTCATCATGTACTAGGTAGTTATATTCGGAGTCACCTAGTGCAG	9300 fluorescence intensity (a.u.)
ACATGTGTACATATAGACATCCTCCTTGCCATAACCACTTCGGAGTCACCTAGTGCAG	8490 fluorescence intensity (a.u.)
TACCGGTTAAAACGCCCAAGTCAGTGGCTCTCGTCCTCCTCGGAGTCACCTAGTGCAG	8860 fluorescence intensity (a.u.)
CTGTGCGGGAGGTGGAGATGGAGATGGTGGGTGGATCGGACGGAGTCACCTAGTGCAG	8630 fluorescence intensity (a.u.)

Quoted at random: two records from the list, in no set order.
Sequence	binding signal
ACATGTGTACATATAGACATCCTCCTTGCCATAACCACTTCGGAGTCACCTAGTGCAG	8490 fluorescence intensity (a.u.)
ATTCTTCCTTCCGCCTCCCCGAGTCGGCCCGCTTCATCTCCGGAGTCACCTAGTGCAG	8110 fluorescence intensity (a.u.)
